This is an account of results in patent US20200115460A1.

Protein sequences, listed by entry. Tags and fused reporters are not part of them. Lines headed by an entry give the natural chain unless they say otherwise; changes in a name come on top.
UniProt P08069: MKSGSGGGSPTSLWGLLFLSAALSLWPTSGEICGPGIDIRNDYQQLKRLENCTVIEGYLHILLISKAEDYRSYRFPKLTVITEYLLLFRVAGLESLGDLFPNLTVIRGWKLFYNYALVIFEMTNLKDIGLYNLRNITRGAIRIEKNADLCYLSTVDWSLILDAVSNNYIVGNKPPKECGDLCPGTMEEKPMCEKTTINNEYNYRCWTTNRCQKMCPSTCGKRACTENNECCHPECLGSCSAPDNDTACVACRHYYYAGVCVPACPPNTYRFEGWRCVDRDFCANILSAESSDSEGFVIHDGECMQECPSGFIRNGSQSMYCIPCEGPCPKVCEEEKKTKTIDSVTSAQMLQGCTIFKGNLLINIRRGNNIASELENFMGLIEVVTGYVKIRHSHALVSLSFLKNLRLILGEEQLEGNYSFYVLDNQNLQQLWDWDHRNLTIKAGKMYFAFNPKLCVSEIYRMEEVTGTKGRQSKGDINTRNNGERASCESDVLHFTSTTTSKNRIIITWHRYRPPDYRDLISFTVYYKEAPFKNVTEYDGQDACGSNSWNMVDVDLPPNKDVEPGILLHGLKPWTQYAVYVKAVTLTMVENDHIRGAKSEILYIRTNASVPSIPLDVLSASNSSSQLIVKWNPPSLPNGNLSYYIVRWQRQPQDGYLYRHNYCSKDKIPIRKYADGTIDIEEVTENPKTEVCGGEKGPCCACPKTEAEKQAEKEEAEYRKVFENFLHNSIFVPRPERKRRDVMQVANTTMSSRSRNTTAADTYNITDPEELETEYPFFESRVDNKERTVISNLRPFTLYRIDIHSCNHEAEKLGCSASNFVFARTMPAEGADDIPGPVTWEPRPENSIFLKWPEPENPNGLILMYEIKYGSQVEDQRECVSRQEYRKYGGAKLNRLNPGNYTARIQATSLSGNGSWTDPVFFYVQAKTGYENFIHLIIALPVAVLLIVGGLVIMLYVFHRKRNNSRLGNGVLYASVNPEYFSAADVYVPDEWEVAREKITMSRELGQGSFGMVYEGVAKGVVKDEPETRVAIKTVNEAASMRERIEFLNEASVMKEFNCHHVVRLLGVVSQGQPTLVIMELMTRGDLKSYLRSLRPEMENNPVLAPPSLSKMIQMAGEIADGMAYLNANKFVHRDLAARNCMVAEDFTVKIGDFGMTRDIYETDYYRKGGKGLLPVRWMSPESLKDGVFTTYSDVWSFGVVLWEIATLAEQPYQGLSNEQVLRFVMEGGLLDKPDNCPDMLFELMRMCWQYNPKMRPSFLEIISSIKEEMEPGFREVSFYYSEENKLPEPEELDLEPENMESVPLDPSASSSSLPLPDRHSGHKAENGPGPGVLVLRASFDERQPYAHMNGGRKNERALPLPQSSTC

No constants are given. Whether binding was seen depends on the method and setting. Some entries that bind do so weakly or less than the wild type.

The test deals with recombinant human IGF-I receptor His tag (305-GR-050, R&D SYSTEMS) (human) (UniProt P08069). Briefly: SPR, Biacore T200. On the technique in general: Surface plasmon resonance follows binding to a sensor surface in real time, without labels.

B1: IGF11-16 (antibody, mouse IgG1, kappa, V domains shown)
VH: QIQLQQPGAELVKPGASVKLSCKAPGYTFTSYWMHWVKQRPGQGLEWIGETNPSNSVTNYNEKFKSKATLTVDKSSSTAYMQLSSLTSEDSAVYYCTIGRGRGFAYWGQGTLVTVSA
VL: DIQMNQSPSSLSASLGDTITITCRASQNINFWLSWCQQKPGNIPKLLIYKASNLHTGVPSRFSGSGSGTDFTLTISSLQPEDIATYYCLQGQSYPYTFGGGTKLEIKR
B1: the binding entry is “binds”.
